Data reported in the supplement of paper PMC10849652.
The list shows a part of the results.

Protein sequences, listed by entry. Tags and fused reporters are not part of them. Lines headed by an entry give the natural chain unless they say otherwise; changes in a name come on top.
UniProt Q53FZ2: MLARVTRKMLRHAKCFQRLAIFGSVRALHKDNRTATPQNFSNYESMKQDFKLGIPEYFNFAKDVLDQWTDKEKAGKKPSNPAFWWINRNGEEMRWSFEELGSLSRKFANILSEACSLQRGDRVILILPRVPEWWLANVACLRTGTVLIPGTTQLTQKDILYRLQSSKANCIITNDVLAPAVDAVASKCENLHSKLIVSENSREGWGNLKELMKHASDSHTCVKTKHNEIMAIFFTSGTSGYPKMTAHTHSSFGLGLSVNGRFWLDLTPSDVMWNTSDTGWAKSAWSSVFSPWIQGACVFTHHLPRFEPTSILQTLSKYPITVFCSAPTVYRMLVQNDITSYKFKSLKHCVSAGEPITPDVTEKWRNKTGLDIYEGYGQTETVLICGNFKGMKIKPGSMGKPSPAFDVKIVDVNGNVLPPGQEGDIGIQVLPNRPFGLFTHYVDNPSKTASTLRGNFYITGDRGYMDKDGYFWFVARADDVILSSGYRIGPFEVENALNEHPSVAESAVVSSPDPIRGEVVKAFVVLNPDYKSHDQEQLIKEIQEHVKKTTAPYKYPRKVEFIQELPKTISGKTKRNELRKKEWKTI
UniProt P11117: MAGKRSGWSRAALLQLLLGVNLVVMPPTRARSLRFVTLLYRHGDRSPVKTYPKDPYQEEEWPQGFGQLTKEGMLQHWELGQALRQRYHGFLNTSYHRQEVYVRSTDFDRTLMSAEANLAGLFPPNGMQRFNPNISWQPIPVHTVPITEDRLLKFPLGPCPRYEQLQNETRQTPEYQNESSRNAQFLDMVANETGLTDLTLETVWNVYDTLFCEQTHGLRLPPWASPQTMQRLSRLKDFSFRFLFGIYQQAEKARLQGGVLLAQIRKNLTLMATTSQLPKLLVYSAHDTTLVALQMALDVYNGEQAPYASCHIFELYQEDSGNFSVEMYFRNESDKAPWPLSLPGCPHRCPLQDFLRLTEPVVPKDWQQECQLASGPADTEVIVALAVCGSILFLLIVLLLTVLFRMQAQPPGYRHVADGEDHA
UniProt Q9UNA0: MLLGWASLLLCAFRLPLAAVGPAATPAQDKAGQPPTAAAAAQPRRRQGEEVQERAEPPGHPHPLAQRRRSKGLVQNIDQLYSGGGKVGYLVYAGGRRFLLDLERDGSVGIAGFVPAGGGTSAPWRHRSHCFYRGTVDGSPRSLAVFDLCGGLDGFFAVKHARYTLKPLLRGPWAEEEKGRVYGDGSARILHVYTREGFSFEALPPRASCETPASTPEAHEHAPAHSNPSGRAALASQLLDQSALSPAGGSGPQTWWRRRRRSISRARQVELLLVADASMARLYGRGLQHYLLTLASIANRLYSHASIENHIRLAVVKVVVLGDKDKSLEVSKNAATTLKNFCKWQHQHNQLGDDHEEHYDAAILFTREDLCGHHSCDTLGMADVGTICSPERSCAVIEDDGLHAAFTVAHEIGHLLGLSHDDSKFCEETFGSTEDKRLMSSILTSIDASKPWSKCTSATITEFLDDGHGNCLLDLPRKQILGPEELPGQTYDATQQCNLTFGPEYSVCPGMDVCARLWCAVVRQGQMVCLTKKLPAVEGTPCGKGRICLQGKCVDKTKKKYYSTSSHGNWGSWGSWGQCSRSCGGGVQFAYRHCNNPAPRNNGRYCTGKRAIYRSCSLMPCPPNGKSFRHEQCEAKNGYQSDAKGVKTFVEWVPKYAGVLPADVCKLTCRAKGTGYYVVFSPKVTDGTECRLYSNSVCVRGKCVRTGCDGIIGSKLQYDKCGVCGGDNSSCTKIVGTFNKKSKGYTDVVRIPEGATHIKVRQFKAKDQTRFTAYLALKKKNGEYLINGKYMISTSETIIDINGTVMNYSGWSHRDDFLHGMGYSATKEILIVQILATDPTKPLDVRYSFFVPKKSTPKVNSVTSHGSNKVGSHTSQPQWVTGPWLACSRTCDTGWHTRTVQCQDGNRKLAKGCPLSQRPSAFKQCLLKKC
UniProt Q6PD74: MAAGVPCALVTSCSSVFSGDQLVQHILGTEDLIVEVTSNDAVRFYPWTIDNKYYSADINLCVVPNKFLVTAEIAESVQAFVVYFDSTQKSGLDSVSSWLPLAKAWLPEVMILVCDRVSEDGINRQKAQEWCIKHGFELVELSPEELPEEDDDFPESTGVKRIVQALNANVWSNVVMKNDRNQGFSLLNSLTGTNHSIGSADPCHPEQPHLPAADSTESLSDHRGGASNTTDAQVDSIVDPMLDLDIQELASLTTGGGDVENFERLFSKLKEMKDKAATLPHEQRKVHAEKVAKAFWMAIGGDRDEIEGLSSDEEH
UniProt Q5T3U5: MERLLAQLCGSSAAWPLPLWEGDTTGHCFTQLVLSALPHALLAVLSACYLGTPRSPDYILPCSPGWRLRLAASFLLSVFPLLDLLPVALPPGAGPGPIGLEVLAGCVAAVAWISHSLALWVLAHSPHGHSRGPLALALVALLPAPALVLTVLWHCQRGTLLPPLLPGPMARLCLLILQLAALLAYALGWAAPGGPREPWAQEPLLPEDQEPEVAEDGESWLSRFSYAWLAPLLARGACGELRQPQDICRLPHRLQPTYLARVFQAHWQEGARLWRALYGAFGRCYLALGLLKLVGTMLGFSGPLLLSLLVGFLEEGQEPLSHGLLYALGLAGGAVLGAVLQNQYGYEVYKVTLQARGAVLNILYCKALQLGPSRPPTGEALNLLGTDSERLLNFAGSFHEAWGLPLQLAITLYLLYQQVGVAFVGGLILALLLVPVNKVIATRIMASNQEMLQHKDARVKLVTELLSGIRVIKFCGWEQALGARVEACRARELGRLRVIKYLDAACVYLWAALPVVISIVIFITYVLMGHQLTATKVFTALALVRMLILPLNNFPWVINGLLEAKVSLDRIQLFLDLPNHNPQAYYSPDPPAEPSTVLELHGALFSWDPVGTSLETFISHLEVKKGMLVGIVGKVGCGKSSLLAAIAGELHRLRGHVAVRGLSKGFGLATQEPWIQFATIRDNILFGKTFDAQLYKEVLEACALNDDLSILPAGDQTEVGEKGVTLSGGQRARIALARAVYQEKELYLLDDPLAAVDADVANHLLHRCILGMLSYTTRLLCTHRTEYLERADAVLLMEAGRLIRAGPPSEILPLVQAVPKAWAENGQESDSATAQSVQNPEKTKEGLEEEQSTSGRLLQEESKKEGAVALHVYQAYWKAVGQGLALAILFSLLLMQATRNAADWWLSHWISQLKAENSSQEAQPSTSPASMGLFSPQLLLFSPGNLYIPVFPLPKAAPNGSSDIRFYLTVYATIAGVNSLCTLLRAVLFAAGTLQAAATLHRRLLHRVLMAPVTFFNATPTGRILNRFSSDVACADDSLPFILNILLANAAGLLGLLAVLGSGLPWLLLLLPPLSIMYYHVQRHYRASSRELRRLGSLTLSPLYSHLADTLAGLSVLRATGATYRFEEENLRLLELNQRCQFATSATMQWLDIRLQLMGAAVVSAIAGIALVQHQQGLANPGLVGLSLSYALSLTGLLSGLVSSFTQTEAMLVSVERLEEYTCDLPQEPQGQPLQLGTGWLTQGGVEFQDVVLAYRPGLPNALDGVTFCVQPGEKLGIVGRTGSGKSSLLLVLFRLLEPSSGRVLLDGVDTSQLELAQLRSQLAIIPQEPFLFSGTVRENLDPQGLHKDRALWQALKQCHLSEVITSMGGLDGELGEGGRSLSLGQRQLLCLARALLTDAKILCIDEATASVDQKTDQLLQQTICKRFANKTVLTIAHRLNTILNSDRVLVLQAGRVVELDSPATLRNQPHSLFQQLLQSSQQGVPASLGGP
UniProt Q86V21: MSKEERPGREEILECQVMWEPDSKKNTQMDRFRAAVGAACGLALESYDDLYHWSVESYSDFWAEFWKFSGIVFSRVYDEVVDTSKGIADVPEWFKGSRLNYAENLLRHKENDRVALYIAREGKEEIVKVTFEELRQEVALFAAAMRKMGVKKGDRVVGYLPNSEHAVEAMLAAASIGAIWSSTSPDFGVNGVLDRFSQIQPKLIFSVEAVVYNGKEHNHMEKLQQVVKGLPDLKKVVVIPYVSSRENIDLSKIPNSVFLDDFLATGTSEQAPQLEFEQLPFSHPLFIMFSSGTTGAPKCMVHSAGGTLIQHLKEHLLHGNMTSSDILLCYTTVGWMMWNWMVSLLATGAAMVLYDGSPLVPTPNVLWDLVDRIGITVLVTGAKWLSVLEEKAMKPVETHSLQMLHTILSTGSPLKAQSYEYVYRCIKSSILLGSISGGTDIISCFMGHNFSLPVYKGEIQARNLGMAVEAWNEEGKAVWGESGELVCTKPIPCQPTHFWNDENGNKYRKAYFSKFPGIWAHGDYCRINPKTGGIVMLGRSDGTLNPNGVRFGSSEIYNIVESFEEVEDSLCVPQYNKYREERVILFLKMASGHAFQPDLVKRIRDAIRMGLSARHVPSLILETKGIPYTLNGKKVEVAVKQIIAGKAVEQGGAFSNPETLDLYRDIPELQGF
UniProt P21439, whole entry, looked up: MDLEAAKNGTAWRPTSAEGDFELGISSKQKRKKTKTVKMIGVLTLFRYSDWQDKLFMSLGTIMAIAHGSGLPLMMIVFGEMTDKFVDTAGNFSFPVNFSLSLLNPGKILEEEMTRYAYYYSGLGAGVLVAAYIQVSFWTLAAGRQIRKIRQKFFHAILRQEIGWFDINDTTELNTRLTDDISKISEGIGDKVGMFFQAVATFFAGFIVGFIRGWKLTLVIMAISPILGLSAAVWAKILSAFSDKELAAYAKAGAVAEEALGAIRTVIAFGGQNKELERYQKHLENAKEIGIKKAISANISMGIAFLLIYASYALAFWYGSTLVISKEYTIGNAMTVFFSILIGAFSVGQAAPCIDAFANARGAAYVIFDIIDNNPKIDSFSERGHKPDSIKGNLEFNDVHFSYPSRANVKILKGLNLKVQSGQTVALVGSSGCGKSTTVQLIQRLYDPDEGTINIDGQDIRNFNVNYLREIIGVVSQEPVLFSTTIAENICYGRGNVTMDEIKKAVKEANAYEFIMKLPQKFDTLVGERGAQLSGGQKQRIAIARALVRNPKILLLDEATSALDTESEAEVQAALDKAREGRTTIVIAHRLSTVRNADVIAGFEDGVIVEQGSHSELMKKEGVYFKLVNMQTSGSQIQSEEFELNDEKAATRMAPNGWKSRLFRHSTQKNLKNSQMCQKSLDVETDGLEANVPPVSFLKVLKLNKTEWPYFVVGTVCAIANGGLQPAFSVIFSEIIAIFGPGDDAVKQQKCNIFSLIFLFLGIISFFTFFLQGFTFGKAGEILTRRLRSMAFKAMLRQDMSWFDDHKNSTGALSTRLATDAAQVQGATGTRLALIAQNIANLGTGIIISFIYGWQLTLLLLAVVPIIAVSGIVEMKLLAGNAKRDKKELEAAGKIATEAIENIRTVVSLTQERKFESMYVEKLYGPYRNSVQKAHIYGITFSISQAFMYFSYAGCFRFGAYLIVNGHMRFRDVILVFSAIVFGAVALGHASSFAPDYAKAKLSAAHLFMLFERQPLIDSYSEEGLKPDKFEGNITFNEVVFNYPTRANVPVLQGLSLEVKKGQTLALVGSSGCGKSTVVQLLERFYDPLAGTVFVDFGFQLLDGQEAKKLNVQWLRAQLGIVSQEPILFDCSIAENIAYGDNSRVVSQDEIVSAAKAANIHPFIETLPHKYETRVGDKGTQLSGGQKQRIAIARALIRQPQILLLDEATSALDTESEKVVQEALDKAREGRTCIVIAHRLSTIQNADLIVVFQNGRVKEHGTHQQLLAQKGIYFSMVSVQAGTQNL
UniProt Q04771: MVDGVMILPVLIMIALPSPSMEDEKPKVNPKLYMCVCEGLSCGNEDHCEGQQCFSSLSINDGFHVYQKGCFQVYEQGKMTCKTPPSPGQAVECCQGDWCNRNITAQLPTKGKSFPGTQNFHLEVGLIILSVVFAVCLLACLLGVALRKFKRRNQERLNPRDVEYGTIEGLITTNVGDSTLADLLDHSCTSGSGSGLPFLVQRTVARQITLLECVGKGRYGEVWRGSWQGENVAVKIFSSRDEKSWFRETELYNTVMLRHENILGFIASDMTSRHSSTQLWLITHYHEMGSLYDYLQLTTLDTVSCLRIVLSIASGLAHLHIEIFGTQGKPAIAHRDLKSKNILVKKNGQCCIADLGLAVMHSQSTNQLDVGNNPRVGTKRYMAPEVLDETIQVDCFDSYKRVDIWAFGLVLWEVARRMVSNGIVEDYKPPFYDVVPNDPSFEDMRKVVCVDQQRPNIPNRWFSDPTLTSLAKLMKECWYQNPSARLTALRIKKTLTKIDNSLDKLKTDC
UniProt Q9BUJ0: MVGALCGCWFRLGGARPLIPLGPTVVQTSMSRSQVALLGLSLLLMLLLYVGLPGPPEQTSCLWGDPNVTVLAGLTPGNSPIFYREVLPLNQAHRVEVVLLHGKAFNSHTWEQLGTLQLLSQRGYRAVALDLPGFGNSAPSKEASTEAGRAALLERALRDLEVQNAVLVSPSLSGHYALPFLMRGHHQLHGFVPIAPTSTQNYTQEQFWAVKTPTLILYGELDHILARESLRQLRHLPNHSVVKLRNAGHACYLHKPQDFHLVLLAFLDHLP

Columns and labels:
Assay in all cases: log2 fold change, soluble protein after heating vs DMSO (PISA); higher = thermal stabilisation; K562 cells, 10 uM, 30 min; active = over 0.2 and 3.5 SD of the protein, either way, in both replicates (recomputed)
[1] = compound: COC1=CC=C(C=C1)CN2C=CC3=C2C=C(C=C3)C(=O)NO
Outline: (§1)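 Aliquots of K562 cells (2×10^6 cells/mL) treated with 10 μM compound for 30 min were heated for 3 min over 48°C-58°C. After pooling and extraction in PBS with 0.5% NP-40 at 4°C, soluble protein from a 21,000xg, 90 min spin was quantified by TMTpro 16plex LC-MS/MS with channel sums equalised. Thermal stability is expressed against control samples, from duplicates, as a log2 fold change.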

filanesib = compound: CON(C)C(=O)N1N=C(c2cc(F)ccc2F)S[C@@]1(CCCN)c1ccccc1 [filanesib]
Outline: as §1

zotarolimus = compound: CO[C@H]1C[C@@H]2CC[C@@H](C)[C@@](O)(O2)C(=O)C(=O)N2CCCC[C@H]2C(=O)O[C@H]([C@H](C)C[C@@H]2CC[C@H](n3cnnn3)[C@H](OC)C2)CC(=O)[C@H](C)/C=C(\C)[C@@H](O)[C@@H](OC)C(=O)[C@H](C)C[C@H](C)/C=C/C=C/C=C/1C [zotarolimus]
Outline: as §1

idasanutlin = compound: COc1cc(C(=O)O)ccc1NC(=O)[C@@H]1N[C@@H](CC(C)(C)C)[C@](C#N)(c2ccc(Cl)cc2F)[C@H]1c1cccc(Cl)c1F [idasanutlin]
Outline: as §1

[2] = compound: CS(=O)(=O)c1ccc(-c2cnc(N)c(C(=O)Nc3ccccc3)n2)cc1
Outline: as §1

crizotinib = compound: C[C@@H](Oc1cc(-c2cnn(C3CCNCC3)c2)cnc1N)c1c(Cl)ccc(F)c1Cl [crizotinib]
Outline: as §1

[3] = compound: C[C@@H]1COCCN1C2=NC(=NC(=C2)C3(CC3)S(=O)(=O)C)C4=C5C=CNC5=CC=C4
Outline: as §1

[4] = compound: C[C@H](C1=CC=C(C=C1)C(=O)NC2=C3C=CNC3=NC=C2)N
Outline: as §1

doramapimod = compound: Cc1ccc(-n2nc(C(C)(C)C)cc2NC(=O)Nc2ccc(OCCN3CCOCC3)c3ccccc23)cc1 [doramapimod]
Outline: as §1

alisertib = compound: COc1cc(Nc2ncc3c(n2)-c2ccc(Cl)cc2C(c2c(F)cccc2OC)=NC3)ccc1C(=O)O [alisertib]
Outline: as §1

[5] = compound: COc1cc2nc(-c3cc(F)ccc3O)nc(N[C@@H]3CNC[C@H]3C(C)(C)O)c2cc1OC
Outline: as §1

gefitinib = compound: COc1cc2ncnc(Nc3ccc(F)c(Cl)c3)c2cc1OCCCN1CCOCC1 [gefitinib]
Outline: as §1

[6] = compound: COc1cccc2cc(-c3nc([C@H]4CC[C@H](C(=O)O)CC4)n4ncnc(N)c34)[nH]c12
Outline: as §1

lapatinib = compound: CS(=O)(=O)CCNCc1ccc(-c2ccc3ncnc(Nc4ccc(OCc5cccc(F)c5)c(Cl)c4)c3c2)o1 [lapatinib]
Outline: as §1

pictilisib = compound: CS(=O)(=O)N1CCN(Cc2cc3nc(-c4cccc5[nH]ncc45)nc(N4CCOCC4)c3s2)CC1 [pictilisib]
Outline: as §1

gandotinib = compound: Cc1cc(Nc2cc(CN3CCOCC3)c3nc(C)c(Cc4ccc(Cl)cc4F)n3n2)n[nH]1 [gandotinib]
Outline: as §1

[7] = compound: Cc1cc(SCc2sc(-c3ccc(C(F)(F)F)cc3)nc2C)ccc1OCC(=O)O
Outline: as §1

ispinesib = compound: Cc1ccc(C(=O)N(CCCN)[C@@H](c2nc3cc(Cl)ccc3c(=O)n2Cc2ccccc2)C(C)C)cc1 [ispinesib]
Outline: as §1

duvelisib = compound: C[C@H](Nc1ncnc2nc[nH]c12)c1cc2cccc(Cl)c2c(=O)n1-c1ccccc1 [duvelisib]
Outline: as §1

tozasertib = compound: Cc1cc(Nc2cc(N3CCN(C)CC3)nc(Sc3ccc(NC(=O)C4CC4)cc3)n2)n[nH]1 [tozasertib]
Outline: as §1

Row | Target | log2 fold change [1] | log2 fold change (filanesib) | log2 fold change (zotarolimus) | log2 fold change (idasanutlin) | log2 fold change [2] | log2 fold change (crizotinib) | log2 fold change [3] | log2 fold change [4] | log2 fold change (doramapimod) | log2 fold change (alisertib) | log2 fold change [5] | log2 fold change (gefitinib) | log2 fold change [6] | log2 fold change (lapatinib) | log2 fold change (pictilisib) | log2 fold change (gandotinib) | log2 fold change [7] | log2 fold change (ispinesib) | log2 fold change (duvelisib) | log2 fold change (tozasertib)
1 | ABCD1 (UniProt P33897) | inactive: 0.199 | inactive: -0.009 | inactive: -0.01 | inactive: -0.446 | inactive: -0.082 | inactive: -0.173 | inactive: 0.082 | inactive: 0.028 | inactive: 0.025 |  |  |  |  |  |  |  |  |  |  | 
2 | ACIN1 (UniProt Q9UKV3) | inactive: 0.019 | inactive: 0.073 | inactive: 0.028 | inactive: 0.099 | inactive: -0.011 | inactive: -0.014 | inactive: 0.068 | inactive: -0.12 | inactive: 0.029 | inactive: -0.082 | inactive: -0.062 | inactive: 0.041 | inactive: 0.006 | inactive: 0.034 | inactive: 0.03 | inactive: 0.01 | inactive: 0.002 | inactive: 0.007 |  | 
3 | ACSM3 (UniProt Q53FZ2) | inactive: 0.134 | inactive: -0.056 | inactive: 0.009 | inactive: -0.017 | inactive: -0.001 | inactive: -0.002 | inactive: 0.027 | inactive: -0.095 | inactive: 0.023 | inactive: -0.033 | inactive: 0.101 | inactive: -0.034 | inactive: 0.028 | inactive: -0.025 | inactive: 0.198 | inactive: -0.037 | inactive: 0.049 | inactive: 0.226 |  | 
4 | ACP2 (UniProt P11117) | inactive: -0.034 | inactive: -0.121 | inactive: -0.016 | inactive: -0.026 | inactive: 0.06 | inactive: -0.051 | inactive: 0.017 | inactive: -0.016 | inactive: 0.016 | inactive: 0.036 | inactive: -0.002 | inactive: 0.001 | inactive: 0.053 | inactive: 0.038 | inactive: -0.031 | inactive: -0.071 | inactive: -0.031 | inactive: -0.036 |  | 
5 | ACTN4 (UniProt K7EJH8) | inactive: 0.042 | inactive: -0.033 | inactive: 0.002 | inactive: -0.012 | inactive: 0.016 | inactive: 0.003 | inactive: -0.017 | inactive: -0.041 | inactive: 0.008 | inactive: -0.196 | inactive: 0.011 |  | inactive: 0.148 | inactive: 0.001 | inactive: -0.05 | inactive: -0.018 | inactive: -0.055 | inactive: 0.074 | inactive: 0.093 | inactive: -0.06
6 | ADAMTS5 (UniProt Q9UNA0) | inactive: 0.295 | inactive: -0.051 | inactive: -0.063 | inactive: -0.06 | inactive: 0.077 | inactive: 0.084 |  | inactive: -0.08 | inactive: 0.052 | inactive: 0.019 |  | inactive: 0.012 | inactive: 0.092 |  | inactive: 0.198 | inactive: 0.178 | inactive: -0.136 | inactive: -0.035 |  | 
7 | ABCA4 (UniProt P78363) | inactive: 0.394 | inactive: 0.076 | inactive: 0.031 | inactive: -0.02 | inactive: 0.286 | inactive: 0.035 | inactive: 0.036 | inactive: 0.019 | inactive: 0.004 | inactive: -0.071 |  | inactive: 0.014 | inactive: -0.007 |  | inactive: 0.135 | inactive: 0.452 |  | inactive: -0.119 |  | 
8 | ABCA3 (UniProt Q99758) | inactive: -0.044 | inactive: 0.062 | inactive: 0.03 | inactive: -0.021 | inactive: 0.111 | active: -0.361 | inactive: 0.174 | inactive: 0.073 | inactive: 0.031 |  | inactive: 0.147 |  |  | inactive: -0.084 | inactive: 0.01 | inactive: 0.036 | inactive: 0.014 | active: -0.502 |  | 
9 | ABCA2 isoform 3 (UniProt Q9BZC7) | inactive: -0.187 | inactive: 0.244 |  |  | inactive: 0.124 | inactive: 0.086 |  |  | inactive: 0.021 |  |  |  |  |  |  |  |  | inactive: 0.059 |  | 
10 | ACAP2 (UniProt Q15057) | inactive: -0.001 | inactive: 0.119 | inactive: 0.01 | inactive: -0.047 | inactive: 0.032 | inactive: 0.033 | inactive: 0.069 | inactive: 0.023 | inactive: -0.059 | inactive: 0.011 | active: 0.283 | inactive: 0.02 | inactive: 0.014 | inactive: 0.015 | inactive: -0.059 | inactive: -0.07 | inactive: 0.047 | inactive: 0.002 |  | 
11 | ABHD13 (UniProt Q7L211) | inactive: -0.089 | inactive: 0.059 |  | inactive: -0.206 | inactive: -0.185 | inactive: 0.079 | inactive: -0.039 |  | inactive: -0.118 | inactive: 0.032 | inactive: -0.07 | inactive: -0.045 | inactive: 0.103 | inactive: 0.086 | inactive: -0.04 | inactive: -0.232 | inactive: 0.092 | inactive: 0.18 | inactive: -0.006 | inactive: 0.016
12 | AAGAB (UniProt Q6PD74) | inactive: -0.017 | inactive: 0.041 | inactive: -0.093 | inactive: -0.053 | inactive: 0.097 | inactive: -0.134 | inactive: -0.035 | inactive: 0.084 | inactive: 0.017 | inactive: 0.062 | inactive: -0.064 | inactive: -0.027 | inactive: -0.045 | inactive: -0.038 | inactive: 0.039 | inactive: -0.026 | inactive: 0.051 | inactive: -0.017 |  | 
13 | ABCC10 (UniProt Q5T3U5) |  | inactive: -0.024 |  | inactive: -0.238 | inactive: 0.046 |  | inactive: 0.047 |  |  |  | inactive: 0.242 | inactive: -0.124 |  | inactive: -0.118 | inactive: 0.051 | inactive: 0.05 | inactive: 0.235 | inactive: -0.39 | inactive: 0.151 | inactive: -0.035
14 | ACTB, A0A2R8YEA7 |  | inactive: 0.445 | inactive: -0.111 | inactive: -0.165 | inactive: 0.207 |  |  | inactive: 0.086 |  | inactive: 0 |  | inactive: -0.056 | inactive: -0.026 |  |  |  | inactive: 0.048 | inactive: 0.049 | inactive: 0.152 | inactive: 0.027
15 | AACS (UniProt Q86V21) |  |  |  |  |  |  | inactive: -0.312 |  |  |  |  |  |  |  |  |  |  | inactive: -0.182 |  | 
16 | ABCB4 (UniProt P21439) |  |  |  | inactive: -0.103 |  |  |  |  |  | inactive: 0.048 | inactive: 0.061 |  | inactive: 0.014 | inactive: -0.099 |  |  |  | inactive: -0.037 |  | inactive: -0.12
17 | ACVR1 (UniProt Q04771) |  | inactive: -0.022 | inactive: -0.371 | inactive: -0.156 | inactive: 0.38 |  | inactive: 0.04 | active: 0.642 |  | inactive: -0.096 | inactive: 0.133 |  | inactive: -0.13 | inactive: -0.004 | inactive: 0.248 | inactive: 0.109 | inactive: -0.061 |  |  | 
18 | ABHD14A (UniProt Q9BUJ0) |  | inactive: 0.121 |  |  | inactive: 0.04 |  |  |  |  |  |  |  |  |  |  |  | inactive: 0.127 |  | inactive: -0.232 | 

Only log2 fold change (tozasertib) and log2 fold change [7], for some of the entries so far:
Row	Target	log2 fold change (tozasertib)	log2 fold change [7]
12	AAGAB (UniProt Q6PD74)		inactive: 0.051
13	ABCC10 (UniProt Q5T3U5)	inactive: -0.035	inactive: 0.235
